{"source": "paper PMC9313110", "about": "“Modulating the Fibrillization of Parathyroid-Hormone (PTH) Peptides: Azo-Switches as Reversible and Catalytic Entities” (Biomedicines, 2022)", "assay": "Negative stain transmission electron microscopy (TEM) of aggregates", "format": "physicochemical", "conditions": "100 μM, 37 °C", "note": "Residues, ends and D or L forms follow the SMILES beside them.", "data": [{"compound": "CC(C)C[C@H](NC(=O)[C@H](C)NC(=O)[C@@H](NC(=O)[C@H](Cc1ccccc1)NC(=O)[C@H](CC(N)=O)NC(=O)[C@H](Cc1c[nH]cn1)NC(=O)[C@@H](NC(=O)[C@H](CC(=O)O)NC(=O)[C@H](CCC(N)=O)NC(=O)[C@H](CC(C)C)NC(=O)[C@H](CCCCN)NC(=O)[C@H](CCCCN)NC(=O)[C@@H](N)CCCNC(=N)N)C(C)C)C(C)C)C(=O)O", "note": "[PTH25–37] (H-RKKLQDVHNFVAL-OH)", "values": [{"measurement": "size of single fibrils by TEM after 20 h", "setting": "50 mM Na2HPO4, pH 7.4", "result": "> 6", "unit": "μm"}, {"measurement": "aggregate morphology by TEM after 20 h", "setting": "50 mM Na2HPO4, pH 7.4, negative stain", "result": "amyloid fibrils"}]}]}
